Assay results taken from US7728039B2, “Biphenyl and Naphthyl-Phenyl Hydroxamic Acid Derivatives” (Sigma-Tau Industrie Farmaceutiche Riunite S.p.A., priority 2005, dated 2010).
Some of these results come from one statement about several compounds together. At least one structure is not confirmed: it was looked up by name or label, or the drawing left a doubt. Some ranges recur; such a range may be that of the whole group of compounds.

System: NCI-H460 R9A tumour cells (H460/(R9A), resistant to carboxylic acid-bearing compounds)
Assay: Sulphorodamine B cytotoxicity test on ST1926-resistant NCI-H460 R9A cells
Type: cell-based
Details: H460/R9A versus sensitive NCI-H460
Procedure: The cytotoxic effect of some biphenyl and phenylnaphthyl compounds bearing a hydroxamic acid group is reported herein. […] The chemical structures of the tested compounds of the invention and of the corresponding compounds bearing a carboxylic acid group are reported in FIG. 1.
Tumour cells were seeded in 96-well tissue culture plates at approximately 10% confluence and were allowed to attach and recover for at least 24 h. […] The plates were incubated for 24 h at 37° C. At the end of the treatment, for NB4 tumour cells in suspension, the procedure was performed as follows: medium culture was removed by centrifugation of the plates at 1600×g for 10 min and the surnatant was removed. 250 μl PBS were added, then the plates were centrifuged at 1600×g for 10 min, the surnatant was removed. 200 μl/well of medium culture RPMI 1640 containing 10% FCS were added and the plates were incubated at 37° C. for other 48 h. […] The survival cell was determined as optical density by a Multiskan spectrofluorimeter at 540 nm. […]
The amount of cells killed was calculated as the percentage decrease in sulphorodamine B binding compared with control cultures. […]
To evaluate the effect of the compound on survival cells, the sulphorodamine B test was used. The amount of cells killed was calculated as the percentage decrease in sulphorodamine B binding compared with control cultures.

SMILES	fold less effective on H460/R9A
COc1ccc(-c2ccc(/C=C/C(=O)O)cc2)cc1C12CC3CC(CC(C3)C1)C2 [ST1898, reference compound]	34-78 fold
O=C(O)c1ccc2cc(-c3ccc(O)c(C45CC6CC(CC(C6)C4)C5)c3)ccc2c1 [ST1964, 6-[3′-(1-adamantyl)-4′-hydroxyphenyl]-2-naphthalenecarboxylic acid, reference compound]	34-78 fold
